Source: the supplement of paper PMC11006884
Most of the targets with a hit are listed elsewhere, so they are rarer here than in the full data. The data scatter; read single values as rough. Only a part is listed here, and it is no random draw.

By UniProt entry, the sequences of proteins in these tests, tags left out. Where a name states a change or a piece, a line headed by the entry shows the natural chain unless it says otherwise.
UniProt Q9H2U1: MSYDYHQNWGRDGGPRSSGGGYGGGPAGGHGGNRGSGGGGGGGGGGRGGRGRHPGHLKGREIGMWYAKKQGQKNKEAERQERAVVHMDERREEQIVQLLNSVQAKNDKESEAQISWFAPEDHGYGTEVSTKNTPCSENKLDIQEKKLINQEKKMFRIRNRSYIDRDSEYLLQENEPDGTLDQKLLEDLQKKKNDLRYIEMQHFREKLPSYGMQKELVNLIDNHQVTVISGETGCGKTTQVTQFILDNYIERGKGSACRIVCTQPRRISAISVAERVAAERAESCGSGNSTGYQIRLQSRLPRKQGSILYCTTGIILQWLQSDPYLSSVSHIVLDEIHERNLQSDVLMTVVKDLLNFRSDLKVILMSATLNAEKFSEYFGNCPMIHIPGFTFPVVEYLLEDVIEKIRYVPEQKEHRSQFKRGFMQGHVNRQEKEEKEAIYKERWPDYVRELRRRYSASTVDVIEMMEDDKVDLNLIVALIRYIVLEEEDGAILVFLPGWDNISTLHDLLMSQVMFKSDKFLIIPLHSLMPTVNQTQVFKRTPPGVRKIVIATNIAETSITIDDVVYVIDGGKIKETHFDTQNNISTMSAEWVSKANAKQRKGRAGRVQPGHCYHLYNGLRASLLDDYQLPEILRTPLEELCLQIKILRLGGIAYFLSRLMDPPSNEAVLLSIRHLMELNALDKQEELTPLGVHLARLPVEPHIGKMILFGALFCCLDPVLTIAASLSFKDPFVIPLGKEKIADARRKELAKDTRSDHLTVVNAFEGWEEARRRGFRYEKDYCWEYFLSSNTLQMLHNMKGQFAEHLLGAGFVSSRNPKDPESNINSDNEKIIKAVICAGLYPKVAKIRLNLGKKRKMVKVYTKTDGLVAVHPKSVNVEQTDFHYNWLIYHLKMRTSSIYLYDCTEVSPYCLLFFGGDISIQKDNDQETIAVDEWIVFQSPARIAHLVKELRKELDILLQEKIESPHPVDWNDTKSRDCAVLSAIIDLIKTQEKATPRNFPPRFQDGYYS
UniProt Q9C0C2: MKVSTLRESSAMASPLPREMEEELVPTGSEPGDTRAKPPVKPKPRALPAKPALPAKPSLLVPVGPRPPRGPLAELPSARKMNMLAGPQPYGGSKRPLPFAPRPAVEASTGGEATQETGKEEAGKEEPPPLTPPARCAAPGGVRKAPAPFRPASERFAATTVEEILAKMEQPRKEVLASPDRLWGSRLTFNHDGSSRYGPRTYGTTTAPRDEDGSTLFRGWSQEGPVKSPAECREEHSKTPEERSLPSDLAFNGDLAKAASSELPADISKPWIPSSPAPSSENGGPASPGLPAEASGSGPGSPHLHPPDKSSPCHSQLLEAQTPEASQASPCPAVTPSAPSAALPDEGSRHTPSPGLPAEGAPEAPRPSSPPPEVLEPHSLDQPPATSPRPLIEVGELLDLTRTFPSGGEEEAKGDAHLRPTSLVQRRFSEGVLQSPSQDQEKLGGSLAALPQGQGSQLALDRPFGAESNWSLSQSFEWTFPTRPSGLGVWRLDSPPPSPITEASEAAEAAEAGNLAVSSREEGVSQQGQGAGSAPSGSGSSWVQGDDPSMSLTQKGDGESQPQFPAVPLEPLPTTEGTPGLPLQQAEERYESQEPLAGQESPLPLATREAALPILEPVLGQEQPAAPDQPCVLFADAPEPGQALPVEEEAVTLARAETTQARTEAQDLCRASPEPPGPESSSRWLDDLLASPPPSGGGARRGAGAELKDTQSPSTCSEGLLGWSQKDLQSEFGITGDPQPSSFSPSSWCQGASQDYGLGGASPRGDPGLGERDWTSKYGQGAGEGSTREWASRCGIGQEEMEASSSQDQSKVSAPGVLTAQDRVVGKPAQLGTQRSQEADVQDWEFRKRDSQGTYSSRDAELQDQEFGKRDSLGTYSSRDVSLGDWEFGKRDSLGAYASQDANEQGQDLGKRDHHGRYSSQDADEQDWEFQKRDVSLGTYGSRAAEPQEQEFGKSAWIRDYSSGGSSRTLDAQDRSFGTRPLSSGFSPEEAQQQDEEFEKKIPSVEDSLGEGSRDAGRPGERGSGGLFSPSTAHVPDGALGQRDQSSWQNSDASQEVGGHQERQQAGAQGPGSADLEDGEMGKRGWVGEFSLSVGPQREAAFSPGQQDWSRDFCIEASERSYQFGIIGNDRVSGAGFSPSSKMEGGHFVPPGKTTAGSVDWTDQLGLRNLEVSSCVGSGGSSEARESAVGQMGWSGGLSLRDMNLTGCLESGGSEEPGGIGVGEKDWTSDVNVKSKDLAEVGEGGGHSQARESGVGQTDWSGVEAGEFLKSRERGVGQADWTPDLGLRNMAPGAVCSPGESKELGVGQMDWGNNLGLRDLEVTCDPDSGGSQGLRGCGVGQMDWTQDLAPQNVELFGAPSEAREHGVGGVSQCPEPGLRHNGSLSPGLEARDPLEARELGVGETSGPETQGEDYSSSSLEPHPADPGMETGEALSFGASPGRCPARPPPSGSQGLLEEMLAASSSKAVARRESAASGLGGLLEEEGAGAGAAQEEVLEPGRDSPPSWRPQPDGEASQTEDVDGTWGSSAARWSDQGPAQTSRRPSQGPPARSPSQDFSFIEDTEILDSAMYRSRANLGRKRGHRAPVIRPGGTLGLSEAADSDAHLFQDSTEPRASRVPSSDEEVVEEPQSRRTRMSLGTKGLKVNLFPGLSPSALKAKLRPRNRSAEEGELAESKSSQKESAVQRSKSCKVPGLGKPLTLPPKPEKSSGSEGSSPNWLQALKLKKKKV
UniProt Q9BYW2: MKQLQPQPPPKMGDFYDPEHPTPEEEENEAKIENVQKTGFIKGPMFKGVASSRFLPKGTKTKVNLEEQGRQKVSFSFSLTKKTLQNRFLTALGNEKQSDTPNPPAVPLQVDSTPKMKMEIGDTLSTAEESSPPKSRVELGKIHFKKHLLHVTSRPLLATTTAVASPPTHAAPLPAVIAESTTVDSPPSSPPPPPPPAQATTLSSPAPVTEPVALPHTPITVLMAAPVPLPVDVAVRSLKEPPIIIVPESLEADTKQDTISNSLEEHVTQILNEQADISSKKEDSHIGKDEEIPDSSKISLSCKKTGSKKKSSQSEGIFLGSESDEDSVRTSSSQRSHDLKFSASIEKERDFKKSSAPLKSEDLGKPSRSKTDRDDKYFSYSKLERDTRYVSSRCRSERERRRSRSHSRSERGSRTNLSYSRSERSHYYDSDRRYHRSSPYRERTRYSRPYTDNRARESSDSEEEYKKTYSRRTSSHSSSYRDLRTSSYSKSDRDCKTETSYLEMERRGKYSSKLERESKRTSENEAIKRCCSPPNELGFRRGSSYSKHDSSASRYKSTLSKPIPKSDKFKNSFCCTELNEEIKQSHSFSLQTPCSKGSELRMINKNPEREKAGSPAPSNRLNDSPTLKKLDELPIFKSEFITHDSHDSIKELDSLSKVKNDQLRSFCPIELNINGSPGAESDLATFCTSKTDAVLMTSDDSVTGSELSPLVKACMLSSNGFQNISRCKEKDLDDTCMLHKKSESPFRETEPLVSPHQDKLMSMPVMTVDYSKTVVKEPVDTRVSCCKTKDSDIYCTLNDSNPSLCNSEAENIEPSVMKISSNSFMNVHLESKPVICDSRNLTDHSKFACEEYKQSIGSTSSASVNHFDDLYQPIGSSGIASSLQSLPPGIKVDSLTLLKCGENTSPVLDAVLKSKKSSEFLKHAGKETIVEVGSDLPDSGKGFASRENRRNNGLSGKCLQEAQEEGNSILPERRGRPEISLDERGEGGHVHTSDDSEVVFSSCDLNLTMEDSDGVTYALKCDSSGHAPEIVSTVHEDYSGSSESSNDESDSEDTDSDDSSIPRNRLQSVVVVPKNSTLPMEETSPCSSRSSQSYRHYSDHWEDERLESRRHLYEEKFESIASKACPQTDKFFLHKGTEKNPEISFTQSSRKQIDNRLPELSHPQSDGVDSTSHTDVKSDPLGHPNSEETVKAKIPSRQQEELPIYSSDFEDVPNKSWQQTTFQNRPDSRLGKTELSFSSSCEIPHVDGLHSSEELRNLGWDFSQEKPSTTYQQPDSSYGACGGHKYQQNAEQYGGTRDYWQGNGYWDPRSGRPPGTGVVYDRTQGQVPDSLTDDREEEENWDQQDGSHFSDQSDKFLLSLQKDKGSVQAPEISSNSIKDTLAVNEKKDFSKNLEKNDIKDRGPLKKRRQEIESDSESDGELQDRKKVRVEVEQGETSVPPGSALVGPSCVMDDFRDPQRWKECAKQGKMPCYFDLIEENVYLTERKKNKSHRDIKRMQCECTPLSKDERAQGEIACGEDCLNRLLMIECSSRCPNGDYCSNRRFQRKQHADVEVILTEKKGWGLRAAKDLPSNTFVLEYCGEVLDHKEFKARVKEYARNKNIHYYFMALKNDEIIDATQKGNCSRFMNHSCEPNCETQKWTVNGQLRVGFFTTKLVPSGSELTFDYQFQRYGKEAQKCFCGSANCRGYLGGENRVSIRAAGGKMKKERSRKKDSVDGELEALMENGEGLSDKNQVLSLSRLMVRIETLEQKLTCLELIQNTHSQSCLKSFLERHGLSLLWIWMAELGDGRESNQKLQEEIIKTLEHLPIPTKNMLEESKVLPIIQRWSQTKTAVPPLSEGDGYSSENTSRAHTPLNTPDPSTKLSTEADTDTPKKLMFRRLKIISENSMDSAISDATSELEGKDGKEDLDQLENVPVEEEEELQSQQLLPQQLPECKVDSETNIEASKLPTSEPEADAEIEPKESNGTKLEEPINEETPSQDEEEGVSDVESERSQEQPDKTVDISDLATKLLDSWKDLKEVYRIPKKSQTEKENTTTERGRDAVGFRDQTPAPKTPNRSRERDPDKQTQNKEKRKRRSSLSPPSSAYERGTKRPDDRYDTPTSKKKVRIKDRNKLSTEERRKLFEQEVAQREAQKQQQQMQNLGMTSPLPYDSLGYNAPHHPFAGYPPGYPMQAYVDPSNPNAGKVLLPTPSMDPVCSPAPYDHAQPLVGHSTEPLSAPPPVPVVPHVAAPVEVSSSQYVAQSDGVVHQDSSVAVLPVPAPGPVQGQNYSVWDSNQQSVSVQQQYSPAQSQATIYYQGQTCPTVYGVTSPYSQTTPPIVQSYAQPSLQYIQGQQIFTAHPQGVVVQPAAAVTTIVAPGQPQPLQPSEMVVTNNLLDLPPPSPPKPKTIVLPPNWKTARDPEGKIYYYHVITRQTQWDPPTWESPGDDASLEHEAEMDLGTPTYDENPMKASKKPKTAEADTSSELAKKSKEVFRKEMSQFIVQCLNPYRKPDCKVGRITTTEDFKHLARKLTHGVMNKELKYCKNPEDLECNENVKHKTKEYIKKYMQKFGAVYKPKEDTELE
UniProt Q9BW27: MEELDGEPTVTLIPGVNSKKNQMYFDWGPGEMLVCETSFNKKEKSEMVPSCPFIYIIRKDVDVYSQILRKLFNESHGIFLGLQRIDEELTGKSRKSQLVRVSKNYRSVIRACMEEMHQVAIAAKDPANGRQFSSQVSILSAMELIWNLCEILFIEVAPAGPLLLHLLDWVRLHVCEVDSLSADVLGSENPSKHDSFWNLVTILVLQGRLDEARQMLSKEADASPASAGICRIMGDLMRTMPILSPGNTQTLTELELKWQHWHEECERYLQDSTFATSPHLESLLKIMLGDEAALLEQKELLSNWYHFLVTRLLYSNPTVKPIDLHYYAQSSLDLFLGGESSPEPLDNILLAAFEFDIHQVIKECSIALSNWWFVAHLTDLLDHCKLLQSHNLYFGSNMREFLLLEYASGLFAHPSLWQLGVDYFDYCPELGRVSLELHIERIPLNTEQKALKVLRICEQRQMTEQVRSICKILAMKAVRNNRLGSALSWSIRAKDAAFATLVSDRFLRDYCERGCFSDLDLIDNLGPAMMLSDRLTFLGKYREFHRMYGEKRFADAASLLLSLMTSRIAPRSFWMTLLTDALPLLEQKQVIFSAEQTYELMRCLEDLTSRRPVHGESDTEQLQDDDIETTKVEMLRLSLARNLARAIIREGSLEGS
UniProt Q9BVS4: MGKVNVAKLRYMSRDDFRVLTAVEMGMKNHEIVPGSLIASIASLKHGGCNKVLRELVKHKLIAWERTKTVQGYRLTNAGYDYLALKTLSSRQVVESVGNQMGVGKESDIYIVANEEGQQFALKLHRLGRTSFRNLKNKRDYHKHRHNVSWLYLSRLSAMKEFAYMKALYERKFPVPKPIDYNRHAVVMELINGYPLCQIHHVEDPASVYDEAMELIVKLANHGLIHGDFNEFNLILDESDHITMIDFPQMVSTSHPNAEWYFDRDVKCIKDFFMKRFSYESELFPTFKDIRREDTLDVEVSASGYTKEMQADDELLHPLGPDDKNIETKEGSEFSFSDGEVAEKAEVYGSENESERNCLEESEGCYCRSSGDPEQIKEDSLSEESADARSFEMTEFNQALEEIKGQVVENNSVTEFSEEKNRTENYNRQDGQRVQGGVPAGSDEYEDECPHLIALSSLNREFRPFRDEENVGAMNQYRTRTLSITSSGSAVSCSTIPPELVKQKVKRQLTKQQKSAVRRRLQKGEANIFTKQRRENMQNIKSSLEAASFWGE

Compound: COC(=O)/C=C/c1ccccc1 [methyl cinnamate]
Test: log2 ratio of iodoacetamide-alkyne labeling of the cysteine site, DMSO over compound (competition); higher = stronger covalent engagement of the cysteine by the compound, active = 1 or more
Conditions: 500 µM; treatment time 1 h; system: HEK293T cell lysate
Summary of the method: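 After 1 h at ambient temperature with vehicle or electrophile (500 µM), HEK293T lysate (2 mg/mL) was labelled for 1 h with iodoacetamide alkyne and clicked to sCIP-TMT reagents. Pooled samples were trypsin-digested overnight at 37 °C, streptavidin-enriched, acid-eluted and analysed by Orbitrap Eclipse LC-MS/MS with FAIMS, then quantified in FragPipe over three replicates with duplicate channels. A cysteine's log2 competition ratio is its mean control-channel over mean compound-channel reporter intensity. Cysteines quantified in only one replicate were not included.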

Row | Target | log2 ratio of iodoacetamide-alkyne labeling
1 | DHX36 C234 (UniProt Q9H2U1) | inactive: -0.0698
2 | UniProt Q9H1B7_C35 | inactive: -0.0086
3 | UniProt Q9BTX1_C468 | inactive: 0.214
4 | TNKS1BP1 C1114 (UniProt Q9C0C2) | inactive: 0.0273
5 | HNRNPUL1 C391 (UniProt Q9BUJ2) | inactive: 0.0605
6 | UniProt Q9BSD7_C184 | inactive: 0.0965
7 | NSD3 C1184 (UniProt Q9BZ95) | inactive: 0.123
8 | UniProt Q9BXJ9_C817 | inactive: 0.0122
9 | WDR11 C411 (UniProt Q9BZH6) | inactive: 0.286
10 | REXO4 C382 (UniProt Q9GZR2) | inactive: 0.144
11 | UBE2O C598 (UniProt Q9C0C9) | inactive: 0.0969
12 | NDFIP1 C15 (UniProt Q9BT67) | inactive: 0.0412
13 | FYCO1 C318 (UniProt Q9BQS8) | inactive: -0.118
14 | UPF3B C319 (UniProt Q9BZI7) | inactive: 0.449
15 | SETD2 C1086 (UniProt Q9BYW2) | inactive: 0.305
16 | UniProt Q9BTY7_C199 | inactive: -0.167
17 | TNKS1BP1 C1324 (UniProt Q9C0C2) | inactive: 0.45
18 | RACGAP1 C419 (UniProt Q9H0H5) | inactive: -0.0179
19 | UTP14A C380 (UniProt Q9BVJ6) | inactive: 0.531
20 | DDX24 C467 (UniProt Q9GZR7) | inactive: 0.218
21 | CORO1B C475 (UniProt Q9BR76) | inactive: 0.261
22 | GNB1L C116 (UniProt Q9BYB4) | inactive: -0.163
23 | HDHD3 C243 (UniProt Q9BSH5) | inactive: 0.0355
24 | ANAPC1 C729 (UniProt Q9H1A4) | inactive: -0.0284
25 | DDA1 C25 (UniProt Q9BW61) | inactive: 0.259
26 | NUP85 C515 (UniProt Q9BW27) | inactive: -0.0126
27 | SETD2 C1241 (UniProt Q9BYW2) | inactive: 0.383

Row | Target | log2 ratio of iodoacetamide-alkyne labeling
28 | MSTO1 C485 (UniProt Q9BUK6) | inactive: 0.00848
29 | ADPGK C40 (UniProt Q9BRR6) | inactive: 0.146
30 | UniProt Q9BVS4_C449 | inactive: 0.335
31 | GNL3 C156 (UniProt Q9BVP2) | inactive: 0.0234
32 | UniProt Q9BWW4_C80 | inactive: -0.111
33 | RNF126 C32 (UniProt Q9BV68) | inactive: -0.222
34 | FTO C171 (UniProt Q9C0B1) | inactive: 0.127
35 | UniProt Q9C0B7_C360 | inactive: 0.381
36 | ACAT2 C158 (UniProt Q9BWD1) | inactive: 0.0477
37 | SPATA5L1 C309 (UniProt Q9BVQ7) | inactive: 0.225
38 | RPAP1 C185 (UniProt Q9BWH6) | inactive: 0.296
39 | TANC1 C1651 (UniProt Q9C0D5) | inactive: 0.376
40 | UniProt Q9BXJ9_C721 | inactive: 0.367
41 | MRPL37 C268 (UniProt Q9BZE1) | inactive: 0.153
42 | DDX24 C639 (UniProt Q9GZR7) | inactive: -0.27
43 | UBE2O C244 (UniProt Q9C0C9) | inactive: -0.203
44 | ACTR6 C28 (UniProt Q9GZN1) | inactive: 0.192
45 | C2orf49 C10 (UniProt Q9BVC5) | inactive: 0.216
46 | NSD3 C173 (UniProt Q9BZ95) | inactive: 0.263
47 | WDR18 C384 (UniProt Q9BV38) | inactive: 0.288
48 | RNF126 C229 (UniProt Q9BV68) | inactive: -0.494
49 | UniProt Q9H019_C52 | inactive: 0.199
50 | PAIP1 C222 (UniProt Q9H074) | inactive: 0.459
51 | SETD2 C714 (UniProt Q9BYW2) | inactive: 0.202
52 | TNKS1BP1 C1337 (UniProt Q9C0C2) | inactive: 0.181
53 | ASPSCR1 C109 (UniProt Q9BZE9) | inactive: -0.112

Nos. 29–31, quoted:
Row | Target | log2 ratio of iodoacetamide-alkyne labeling
29 | ADPGK C40 (UniProt Q9BRR6) | inactive: 0.146
30 | UniProt Q9BVS4_C449 | inactive: 0.335
31 | GNL3 C156 (UniProt Q9BVP2) | inactive: 0.0234
